The list shows a part of the results. This data set is noisy: repeats of one test often differ as much as different tests do.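 Researchers measured free-swimming zebrafish larvae's O-bend response probability to dark flashes (naive: first five; training: remaining flashes of four 60-flash blocks; test: later 60-flash block) and OMR turning toward alternating leftward/rightward LED motion. Six treated larvae were compared to sixty 0.1% DMSO controls, with |SSMD|≥2 marking a hit.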
Tested on: Danio rerio larvae (5 dpf, TLF)
Assay: Prob-Train (SSMD vs DMSO vehicle); higher = higher than vehicle (e.g. higher dark-flash O-bend response probability, or better optomotor performance)
Conditions: 10 µM; pre-incubation: 30-90 min

Compound | Prob-Train
CNC(=O)c1cc(Oc2ccc(NC(=O)Nc3cc(C(C)(C)C)nn3-c3ccc4ncccc4c3)c(F)c2)ccn1 [DCC-2036 (Rebastinib)] | 0.349
CNC(=O)CN(CCN(CCN(CC(=O)[O-])CC(=O)NC)CC(=O)[O-])CC(=O)[O-].O.[Gd+3] [Gadodiamide] | 0.00671
COc1cccc2c1C(=O)c1c(O)c3c(c(O)c1C2=O)C[C@@](O)(C(=O)CO)C[C@H]3O[C@H]1C[C@H](N)[C@H](O)[C@H](C)O1.Cl [Doxorubicin (Adriamycin)] | 0.404
CC1(C)S[C@@H]2[C@H](NC(=O)Cc3ccccc3)C(=O)N2[C@H]1C(=O)[O-].[Na+] [Penicillin G Sodium] | -0.585
CC(C)(C)C(=O)OCOP(=O)(COCCn1cnc2c(N)ncnc21)OCOC(=O)C(C)(C)C [Adefovir Dipivoxil] | 0.143
CCCCCCCCCCC[C@@H](C[C@@H]1OC(=O)[C@H]1CCCCCC)OC(=O)[C@H](CC(C)C)NC=O [Orlistat] | 0.281
CCC[C@@H]1O[C@@H]2C[C@H]3[C@@H]4CCC5=CC(=O)C=C[C@]5(C)[C@@H]4[C@H](O)C[C@]3(C)[C@@]2(C(=O)CO)O1 [Budesonide] | -0.0352
CC(C)(S)[C@@H](N)C(=O)O [Penicillamine (Cuprimine)] | -0.211
NC(=O)c1ccc(N(C(N)=O)c2c(F)cccc2F)nc1-c1ccc(F)cc1F | -0.674
CCOC(=O)O[C@@]1(C(=O)OCCl)CC[C@H]2[C@@H]3CCC4=CC(=O)C=C[C@]4(C)[C@@H]3[C@H](O)C[C@@]21C [Loteprednol etabonate] | 0.501
C[C@@](Cc1ccc(O)c(O)c1)(NN)C(=O)O [Carbidopa] | -0.118
CC(C)c1ccccc1Cc1cc(C(=O)Nc2ccc(S(=O)(=O)c3ccccc3C(C)(C)C)cc2)c(O)c(O)c1O | -0.517
CS(=O)c1ccc(-c2nc(-c3ccc(F)cc3)c(-c3ccncc3)[nH]2)cc1 (stereo not given) | -0.281
Clc1ccc(C2(c3ccc(-c4cn[nH]c4)cc3)CCNCC2)cc1 | -0.441
CC[C@H](/C=C/[C@@H](C)[C@@H]1CC[C@H]2[C@@H]3CC=C4C[C@@H](O)CC[C@]4(C)[C@@H]3CC[C@@]21C)C(C)C [Stigmasterol] | 0.673
CC(=O)NC[C@H]1CN(c2ccc(N3CCOCC3)c(F)c2)C(=O)O1 [Linezolid] | 0.198
CC[N+](CC)(CC)CCOc1cccc(OCC[N+](CC)(CC)CC)c1OCC[N+](CC)(CC)CC.[I-].[I-].[I-] [Gallamine Triethiodide] | -0.0534
CN1CCN(c2ccc3nc(-c4c(N)c5c(F)cccc5[nH]c4=O)[nH]c3c2)CC1 [Dovitinib (TKI-258, CHIR-258)] | 0.231
O=C(Nc1cccc(Cl)c1)c1ccccn1 | -0.373
CC(O)C(=O)O.CC(O)C(=O)O.CN1CCN(c2ccc3nc(-c4c(N)c5c(F)cccc5[nH]c4=O)[nH]c3c2)CC1 [Dovitinib (TKI-258) Dilactic Acid] | 0.117

Part of the list above in order of length of the SMILES, low to high.
Compound | Prob-Train
O=C(Nc1cccc(Cl)c1)c1ccccn1 | -0.373
CS(=O)c1ccc(-c2nc(-c3ccc(F)cc3)c(-c3ccncc3)[nH]2)cc1 (stereo not given) | -0.281
CCC[C@@H]1O[C@@H]2C[C@H]3[C@@H]4CCC5=CC(=O)C=C[C@]5(C)[C@@H]4[C@H](O)C[C@]3(C)[C@@]2(C(=O)CO)O1 [Budesonide] | -0.0352

Next compounds follow:

Compound | Prob-Train
C[C@@H]1C(=O)O[C@H]2CC34[C@H]5C[C@@H](C(C)(C)C)C36[C@@H](OC(=O)[C@H]6O)O[C@@]4(C(=O)O5)[C@]21O (stereo not given in full) [Ginkgolide A] | -0.252
CC1(C)[C@@H](O[C@H]2O[C@H](C(=O)O)[C@@H](O)[C@H](O)[C@@H]2O[C@@H]2O[C@H](C(=O)O)[C@@H](O)[C@H](O)[C@H]2O)CC[C@@]2(C)[C@H]3C(=O)C=C4[C@@H]5C[C@@](C)(C(=O)O)CC[C@]5(C)CC[C@@]4(C)[C@]3(C)CC[C@@H]12.N [Ammonium Glycyrrhizinate] | 0.0903
C#C[C@@]1(O)CC[C@H]2[C@@H]3CCc4cc(O)ccc4[C@@H]3CC[C@@]21C [Ethinyl Estradiol] | -2.01
COc1ccc(NS(=O)(=O)c2sc3ccc(Cl)cc3c2C)cc1N1CCNCC1 | -0.0757
CC(=O)Oc1cccc2c1C(=O)c1c(OC(C)=O)cc(C(=O)O)cc1C2=O [Diacerein] | -0.434
C[C@@]12CC[C@H]3c4ccc(O)cc4C[C@@H](CCCCCCCCCS(=O)CCCC(F)(F)C(F)(F)F)[C@H]3[C@@H]1CC[C@@H]2O (stereo not given in full) [Fulvestrant] | -0.0274
CCC(NC(C)C)C(O)c1ccc(O)c(O)c1.CS(=O)(=O)O (stereo not given) [Isoetharine Mesylate] | -0.686
CC(C)(C#N)c1ccc(N2C(=O)OCc3cnc4ccc(-c5cnc6ccccc6c5)cc4c32)cc1 | -0.674
O=C1CCC(N2C(=O)c3ccccc3C2=O)C(=O)N1 (stereo not given) [Thalidomide] | -0.0276
CC(C)N(CCCNC(=O)Nc1ccc(C(C)(C)C)cc1)C[C@H]1O[C@@H](n2ccc3c(N)ncnc32)[C@H](O)[C@@H]1O | 0.373
[O-][n+]1cccc(CO)c1 [Mepiroxol] | 0.0302
C[C@H](CS)C(=O)N1CCC[C@@H]1C(=O)O [Captopril] | -0.458
C=CC[C@@H]1/C=C(\C)C[C@H](C)C[C@H](OC)[C@@H]2O[C@@](O)(C(=O)C(=O)N3CCCC[C@H]3C(=O)O[C@H](/C(C)=C/[C@@H]3CC[C@H](O)[C@H](OC)C3)[C@H](C)[C@@H](O)CC1=O)[C@H](C)C[C@@H]2OC [Tacrolimus (FK506)] | 1.59
NC[C@H]1O[C@H](O[C@H]2[C@@H](O)[C@@H](O[C@H]3O[C@H](CO)[C@@H](O)[C@H](N)[C@@H]3O)[C@H](N)C[C@@H]2N)[C@@H](N)C[C@@H]1O [Tobramycin] | -0.624
CCCCCCCCCC(=O)N[C@@H](Cc1c[nH]c2ccccc12)C(=O)N[C@H](CC(N)=O)C(=O)N[C@@H](CC(=O)O)C(=O)N[C@@H]1C(=O)NCC(=O)N[C@H](CCCN)C(=O)N[C@@H](CC(=O)O)C(=O)N[C@@H](C)C(=O)N[C@@H](CC(=O)O)C(=O)NCC(=O)N[C@H](CO)C(=O)N[C@@H]([C@@H](C)CC(=O)O)C(=O)N[C@@H](CC(=O)c2ccccc2N)C(=O)O[C@@H]1C [Daptomycin] | 0.255
CC(C(=O)O)c1cccc(C(=O)c2ccccc2)c1 (stereo not given) [Ketoprofen] | 0.0493
COc1ccc(/C=C/C(=O)Nc2ccccc2C(=O)O)cc1OC [Tranilast] | -0.775
NC1(Cc2ccc(Cl)cc2)CCN(c2ncnc3[nH]ccc23)CC1 | -0.483
CN(C)CCN(Cc1ccccc1)c1ccccn1.Cl [Tripelennamine HCl] | 0.0986
COc1ccc(-c2cc(=O)c3c(OC)c(OC)c(OC)c(OC)c3o2)cc1 [Tangeretin] | -2.69
